Test results: PubChem BioAssay AID2685 (National Center for Advancing Translational Sciences (NCATS), 2010)
The other results are listed elsewhere or left out. These are further read-outs of the screen, such as a control signal, another cell line or another target. No call is given for them. Compounds called inactive in the main read-out are mostly missing here. The note in brackets gives the kind of curve behind each potency; many fits are weak.

Experiment: qHTS Assay for Lipid Storage Modulators in Drosophila S3 Cells;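 for cell number change: cells counted by Cell Tracker Red CMTPX staining in the red channel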
Conditions: BODIPY lipid droplet fluorescence, 18-24 h; for cell number change: measured here: cell count max response, cells fed with added oleic acid
Procedure, shortened: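 Drosophila S3 cells got compounds at several concentrations plus oleic acid (400 uM solution). Laser-scanning cytometry with 488 nm excitation read lipid droplets at 500-530 nm and cells at 575-640 nm. Percent activity was relative to 20 uM Triacsin C.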

[1] = measured here: lipid fluorescence (Fed channel) AC50, cells fed with added oleic acid
[2] = measured here: cell number channel AC50, cells fed with added oleic acid

SMILES	cell number change [%]	AC50 [1]	AC50 [2]
CC(=O)c1cccc(NS(=O)(=O)N2CCCCC2)c1	-17.9	0.82 µM [falling, partial curve]	
CCN(c1ccccc1)S(=O)(=O)c1ccc(Oc2ccc(C(C)=O)cc2OC)nc1	-8.25	1.84 µM [rising, partial curve, poor fit]	
Cc1cc2cc(CCNC(=O)c3c(-c4ccccc4Cl)noc3C)c(=O)[nH]c2cc1C			0.82 µM [rising, single point]
CC(=O)c1ccccc1N(C(=O)c1ccco1)C(C(=O)NC1CCCC1)c1ccc(C)cc1 (stereo not given)	-28.6	0.58 µM [falling, single point]	
O=C(O)c1ccc(S(=O)(=O)Cc2ccccc2)cc1	-34.5	0.164 µM [falling, full curve]	0.164 µM [falling, full curve]
COc1cc(/C=N/NC(=O)c2cccc(S(=O)(=O)N3CCCCC3)c2)cc(Br)c1O	-0.934	1.3 µM [falling, partial curve]	1.3 µM [falling, partial curve]
O=C(Nc1ccc(F)cc1)Oc1ccccc1N1CCOCC1	0.0155		6.51 µM [falling, single point]
O=C(c1cccc(S(=O)(=O)Nc2ccc(F)cc2)c1)N1CCOCC1	-8.65		
O=c1c2ccccc2nc2n1C(CSc1ccc(Br)cc1)CN2 (stereo not given)	-27.3	0.164 µM [falling, full curve, poor fit]	
CCCn1c(SCC(=O)N2CCc3ccccc32)nnc1-c1ccco1	-30.6	6.51 µM [falling, single point]	2.59 µM [falling, full curve, poor fit]
C=CCn1c(SC(CCO)C(=O)NCc2ccco2)nc2sc3c(c2c1=O)CCC3 (stereo not given)	0.194	4.11 µM [rising, full curve, poor fit]	
COc1ccc(NC(=O)CS(=O)c2ccc(F)cc2)cc1 (stereo not given)	-3.93		
CN1CCN(/N=C/c2ccc(-c3ccc([N+](=O)[O-])cc3Cl)o2)CC1	43.3	6.51 µM [falling, single point]	29.1 µM [rising, single point]
COc1cc(/C(C)=N/Nc2ccc(C(=O)O)cc2)cc(OC)c1OC	20.5	11.6 µM [rising, partial curve, poor fit]	
CCCCn1c(=O)n(C)c(=O)c2c(C(F)(F)F)cc(-c3ccncc3)nc21	16.8	0.82 µM [rising, partial curve]	
Cc1cnc(NC(=O)CSc2nnc3ncccn23)s1	22.2		
O=C(COC(=O)c1nc(Cl)ccc1Cl)NCc1ccc(Cl)cc1Cl	11.6		
CCc1cc2c(=O)c(-c3ccc4c(c3)OCCO4)coc2cc1OC(=O)c1ccco1			6.51 µM [falling, single point]
Cc1ccc(COC(=O)CCc2nc3ccccc3c(=O)[nH]2)cc1	130		
CC(C)c1nc(SCC(=O)N2CCN(c3ccccc3)CC2)c2c(=O)n(C)c(=O)n(C)c2n1		0.146 µM [rising, full curve]	0.13 µM [rising, full curve, poor fit]
COc1ccc(NC(=O)/C(=C\c2ccc(OS(=O)(=O)c3ccc(C)cc3)cc2)NC(=O)c2ccccc2)cc1	1.79	2.06 µM [falling, partial curve]	6.51 µM [falling, single point]

SMILES	cell number change [%]	AC50 [1]	AC50 [2]
NC(=O)c1c(NC(=O)c2ccco2)sc2c1CCC2	-39.8	0.00411 µM [rising, full curve, poor fit]	29.1 µM [falling, single point]
CCCCS(=O)(=O)Nc1ccc2ncn(C)c(=O)c2c1	-3.3	13 µM [falling, partial curve, poor fit]	
O=c1cc2c(nn1Cc1ccccc1)-c1ccccc1CC2	88.1		9.2 µM [rising, partial curve]
Cc1ccc(N2CC(C(=O)Nc3cc(Cl)ccc3-n3cncn3)CC2=O)cc1 (stereo not given)	30.8	0.82 µM [rising, full curve, poor fit]	0.731 µM [rising, full curve, poor fit]
N#Cc1nc(-c2ccc(Cl)cc2)oc1NCc1ccco1	-9.39	3.26 µM [rising, full curve]	
NNC(=O)CNC(=O)C12CC3CC(CC(C3)C1)C2	-11.4	29.1 µM [rising, single point]	
Cc1ccc(C2(C)NC(=O)N(CC(=O)NNC(=O)c3ccoc3C)C2=O)cc1 (stereo not given)	-22.8	1.3 µM [falling, full curve]	
C/C=C(\C)C(=O)NNC(=O)c1sc(-c2ccccc2)nc1C		10.3 µM [rising, partial curve, poor fit]	
COCCNC(=S)Nc1ccc(N2CCOCC2)c(S(=O)(=O)Nc2ccccc2OC)c1	-45.2	0.82 µM [falling, full curve, poor fit]	0.82 µM [falling, full curve, poor fit]
CCCCCCOC(=O)NCC(O)c1ccccc1 (stereo not given)	-14.6		
CC(C)(C)C(=O)NC(=S)N1CCc2ccccc21	4.77	4.11 µM [falling, single point]	
COc1ccc(NC(=S)NCc2cccnc2)cc1	-13	29.1 µM [falling, single point]	0.206 µM [falling, full curve, poor fit]
CCOC(=O)N1CCN(C(=O)CSc2ccc(-c3cccc(OC)c3)nn2)CC1	-38.1		18.4 µM [falling, single point]
COc1ccc(C(=O)COC(=O)CNC(=O)c2cc(OC)cc(OC)c2)cc1	26.4		0.00517 µM [rising, full curve, poor fit]
COCCN(C(=O)COC(=O)CSc1ccccc1)c1c(N)n(Cc2ccccc2)c(=O)[nH]c1=O	8.43		
O=C(CCC(=O)N1CCSc2ccccc21)NCc1cccc(Br)c1	-18.4		
O=C(Nc1nccs1)C1CC=CCC1 (stereo not given)	24.6		
CC(C)=CCc1c(O)cc2oc3c(CC=C(C)C)c(O)c(O)c(CC=C(C)C)c3c(=O)c2c1O	-74.2	29.1 µM [falling, single point]	29.1 µM [falling, single point]
CNC(=S)N/N=C/c1c(C)cccc1Cl		0.116 µM [rising, single point]	
O=C(CNc1ccc(C(F)(F)F)cc1)Nc1cccc(S(=O)(=O)N2CCCC2)c1	-10.3	1.84 µM [falling, partial curve, poor fit]	2.31 µM [falling, partial curve, poor fit]
CNc1ccc(/C=C(\C#N)c2ccccn2)cc1[N+](=O)[O-]	57.8	18.4 µM [rising, single point]	18.4 µM [rising, single point]

SMILES	cell number change [%]	AC50 [1]	AC50 [2]
NS(=O)(=O)c1ccc(NC(=O)CN2CCCc3ccccc32)cc1	49.2		23.1 µM [rising, single point]
Cc1c(Cl)cccc1NC(=O)CSc1ncnc2c1cnn2CCO		0.58 µM [rising, single point]	
CCOC(=O)NNC(=O)C12CC3CC(CC(C3)C1)C2	-57.3		
COc1cccc(-n2cnc3sc(C)cc3c2=O)c1	4.27		
CN(CC(=O)Nc1ccccc1Br)C(=O)c1ccccc1Cc1ccccc1	-11.3	1.16 µM [falling, full curve, poor fit]	
Fc1ccc(Cn2nnnc2CN2CCN(C3CCCC3)CC2)cc1	5.6	20.6 µM [falling, partial curve]	
CN(C)C(=O)NC(Nc1cccc([N+](=O)[O-])c1)C(Cl)(Cl)Cl (stereo not given)	14.2		6.51 µM [falling, single point]
Cc1ccccc1NC(=S)N(CCN(C)C)C(C)c1cccnc1 (stereo not given)	-6.86	1.84 µM [rising, full curve, poor fit]	0.651 µM [rising, full curve, poor fit]
O=C1C2CCCN2C(c2ccc(F)cc2)N1c1ccc(Cl)cc1 (stereo not given)			0.103 µM [rising, full curve, poor fit]
CCOc1ccc(Nc2oc(-c3ccco3)nc2C#N)cc1	5.23	7.31 µM [falling, single point]	0.0082 µM [falling, full curve, poor fit]
S=c1[nH]nc(-c2ccc(Cl)cc2)n1-c1ccc2c(c1)OCCO2	-3.83	29.1 µM [rising, single point]	
CC1CCCC(NC(=O)CSc2nncs2)C1C (stereo not given)	-10	0.00517 µM [rising, full curve, poor fit]	
CC1(C)CC(=O)C(C=NCCN2CCN(C(=O)CCl)CC2)=C(O)C1	-25.3		
CNC(=O)C1CC(=O)N(c2ccc(OCC(=O)Nc3ccc(OC)cc3)cc2)C1 (stereo not given)	14.6	29.1 µM [rising, single point]	
Cc1cc(N2CCOCC2)c2c(N)c(Br)cc(C)c2n1	-12		
CCC1CN(C(=O)NCc2ccc(C)cc2)c2cc(Cl)ccc2O1 (stereo not given)	5.67		
COc1cccc(CNC(=O)c2ccc(S(=O)(=O)N3CCOCC3)cc2)c1	32.5		29.1 µM [rising, single point]
Cc1ccc(C(=O)NN2C(=O)CSC2=S)cc1	11.2	0.0651 µM [rising, full curve]	
O=[N+]([O-])c1cccc(-c2ccc(CN3CCCCC3)o2)c1	-13.8		

No new results follow: entries from further up.
SMILES	cell number change [%]	AC50 [1]	AC50 [2]
CCC1CN(C(=O)NCc2ccc(C)cc2)c2cc(Cl)ccc2O1 (stereo not given)	5.67		
COc1cccc(CNC(=O)c2ccc(S(=O)(=O)N3CCOCC3)cc2)c1	32.5		29.1 µM [rising, single point]
Cc1ccc(C(=O)NN2C(=O)CSC2=S)cc1	11.2	0.0651 µM [rising, full curve]	
